{"source": "paper PMC6273820", "about": "“Antimicrobial Activity and Stability of Short and Long Based Arachnid Synthetic Peptides in the Presence of Commercial Antibiotics” (Molecules, 2016)", "test_system": "Klebsiella pneumoniae ST258", "format": "cell-based", "settings": "dose-response in Muller-Hinton broth, Figure 3D", "protocol": "It was determined using the broth microdilution assay in accordance with the procedures from the Clinical and Laboratory Standards Institute. For broth microdilution assays, pathogenic bacteria, such as Escherichia coli ATCC 25922, Staphylococcus aureus ATCC 25923, Pseudomonas aeruginosa ATCC 27853 and Klebsiella pneumoniae ST258, were cultured in Mueller-Hinton broth (MHB) at 37 °C until an end point between of 0.08 and 0.13 units of absorbance at 625 nm and diluted 1:100 in MHB (ca. 1 × 10^8 CFU/mL). […]\nE. coli, S. aureus, P. aeruginosa and K. pneumoniae were grown in the presence of each of the four AMPs, and in the presence of each of the eight commercial antibiotics, which were Levofloxacin, Trimethoprim, Sulfamethoxazole, Azithromycin, Amoxicillin, Ceftriaxone, Gentamicin and Vancomycin, and in combinations of AMPs and the antibiotics. That is, the antimicrobial capacity of each AMP (50, 25, 12.5 and 6.2 µg/ mL) in combination with each antibiotic agent (50, 25, 12.5, 3.2, 1.6 and 0 µg/ mL) was measured as described above. For evaluation of the effect of the mixtures, the fractional inhibitory concentration (FIC) was calculated for each antibiotic in each combination. […]"}
{"smiles": "Cc1cc(NS(=O)(=O)c2ccc(N)cc2)no1", "note": "[Sulfamethoxazole]", "values": [{"measurement": "Antibiotic concentration in whose presence K. pneumoniae could grow (up to)", "value": "up to 50 µg/mL"}]}
